Reference: patent US9084422B2, “Anthranilamides compositions” (E I DU PONT DE NEMOURS AND COMPANY, priority 2001, dated 2015)
Some of these results come from one statement about several compounds together.

Experiments:
Type in all cases: in vivo
[1] = system: diamondback moth (Plutella xylostella); assay: Test A: control of diamondback moth, foliar spray on radish; conditions: sprayed at 50 ppm, neonate larvae, assessed after 6 days
[2] = system: fall armyworm (Spodoptera frugiperda); assay: Test B: control of fall armyworm, foliar spray on corn; conditions: sprayed at 50 ppm; corn (maize) plant; 1-day-old larvae; assessed after 6 days
[3] = system: tobacco budworm (Heliothis virescens); assay: Test C: control of tobacco budworm, foliar spray on cotton; conditions: sprayed at 50 ppm, 2-day-old larvae, assessed after 6 days
[4] = system: beet armyworm (Spodoptera exigua); assay: Test D: control of beet armyworm, foliar spray on corn; conditions: sprayed at 50 ppm, 1-day-old larvae, assessed after 6 days
[5] = system: green peach aphid (Myzus persicae); assay: Test E: control of green peach aphid through contact and/or systemic means; conditions: sprayed at 250 ppm; radish plant; assessed after 6 days
[6] = system: cotton melon aphid (Aphis gossypii); assay: Test F: control of cotton melon aphid through contact and/or systemic means; conditions: sprayed at 250 ppm; cotton plant; assessed after 6 days
[7] = system: silverleaf whitefly (Bemisia tabaci); assay: Test G: control of silverleaf whitefly on cotton; conditions: sprayed at 250 ppm; cotton plant; 2nd and 3rd instar nymphs; after 6 days
[8] = system: fall armyworm (Spodoptera frugiperda); assay: Test J: soil systemic control of fall armyworm on corn, LC90; conditions: soil application 1 mL of test solution, second-instar larvae, mortality after four days, probit analysis

Q: With `CNC(=O)c1cc(Cl)cc(Cl)c1NC(=O)c1cc(C(F)(F)F)nn1-c1ncccc1Cl` [Compound 11] as the molecule, how does the “feeding damage (excellent levels of plant protection)” value (shortened to “feeding damage”) [1] read?
A: The value was ≤ 10%.

Q: What about the “feeding damage” value [2] of the same molecule?
A: The value was ≤ 10%.

Q: And the “feeding damage” value [3]?
A: Its value is ≤ 10%.

Q: And the “feeding damage” value [4]?
A: Its value is ≤ 10%.

Q: And the mortality [5]?
A: The mortality was “at least 80%”.

Q: And the mortality [6]?
A: Its mortality is “at least 80%”.

Q: What about the mortality [7] of the same molecule?
A: Its mortality is “at least 80%”.

Q: And the LC90 [8]?
A: The LC90 was ≤ 10 ppm.
